The other results are listed elsewhere or left out. The main result of the screen is listed elsewhere. These columns were measured beside it and carry no call. Compounds called inactive in the main read-out are mostly missing here. Potencies come from curve fits of mixed quality, noted in brackets.
Experiment: qHTS Assay to Find Inhibitors of Chronic Active B-Cell Receptor Signaling
Conditions: ABC-DLBCL IkBa-CBG/CBR reporter, luminescence ratio (green luciferase fused to IkBa over red control in TMD8 lymphoma cells), 4 h
Procedure, shortened: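 TMD8 ABC-DLBCL cells carrying doxycycline-inducible green luciferase fused to IkappaBalpha plus unfused red luciferase were exposed to compounds (up to 46 uM) for 4 hrs at 37C. Activity came from the overlap-corrected green/red luminescence ratio.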

[1] = measured here: CBR red luminescence, cell number
[2] = measured here: IkBa-CBG green luminescence

COc1ccc(C)cc1NC(=O)c1ccccc1N(C)S(=O)(=O)c1ccccc1
AC50 [1]: 4.47 µM [falling, partial curve]

COc1ccc(-c2sc3ccc(N4CCOCC4)cc3c2-c2ccc(O)cc2)cc1
AC50 [1]: 11.6 µM [falling, partial curve, poor fit]

CCn1c(SCC(=O)Nc2nc(-c3ccccc3)cs2)nnc1-c1ccccc1
AC50 [1]: 35.5 µM [falling, single point]

C=CCn1c(=O)c2c(nc3n2CCCN3CCc2ccccc2)n(C)c1=O
AC50 [1]: 5.62 µM [falling, partial curve, poor fit]

CC1CCCCN1Cc1nc2c(c(=O)n(C)c(=O)n2C)n1CCc1ccccc1 (stereo not given)
AC50 [1]: 11.6 µM [rising, single point]

COc1ccc(/C=N/Nc2nc(Nc3ccccc3)nc(N3CCCC3)n2)cc1[N+](=O)[O-]
AC50 [1]: 2.82 µM [falling, full curve, poor fit]

N#C/C(=N\Nc1ccc(S(=O)(=O)N2CCc3ccccc32)cc1)C(N)=S
AC50 [1]: 35.5 µM [falling, single point]

Cc1ccccc1OCC(=O)NNC(=O)c1ccc(-c2ccccc2)cc1
AC50 [1]: 20.6 µM [rising, single point]

Cc1ccc2nc(N(Cc3cccnc3)C(=O)CCc3ccccc3)sc2c1
AC50 [1]: 1.41 µM [rising, full curve, poor fit]

Clc1c(Cl)c(Cl)c2n[nH]nc2c1Cl
AC50 [1]: 20 µM [falling, partial curve, poor fit]

O=S1(=O)N=C(Nc2nc3c(s2)CCCC3)c2ccccc21
AC50 [1]: 20.6 µM [falling, partial curve] | AC50 [2]: 32.6 µM [falling, partial curve, poor fit]

CC(=O)Nc1cccc(C(=O)/C=C/c2ccc(N(C)C)cc2)c1
AC50 [1]: 10.3 µM [falling, partial curve]

CC(=O)Nc1ccc2nc(SCC(=O)N3CCOCC3)sc2c1
AC50 [1]: 35.5 µM [falling, single point]

CCc1nc2ccccc2c(C(=O)OCc2nnc(-c3ccccc3)o2)c1C
AC50 [1]: 29.1 µM [falling, single point]

Cc1ccc(NC(=O)c2csnn2)c(C)c1
AC50 [1]: 16.4 µM [rising, partial curve, poor fit]

COc1ccc(S(=O)(=O)n2ccc(C(C)Oc3ccc(-c4ccccc4)c(F)c3)n2)cc1 (stereo not given)
AC50 [1]: 4.11 µM [falling, single point]

CC1CC(=O)N(CC(=O)Nc2ccc(F)cc2)c2ccccc2S1(=O)=O (stereo not given)
AC50 [1]: 20 µM [falling, partial curve]

COc1ccc(-c2ccc(=O)n(CC(=O)Nc3ccc4c(c3)OCCO4)n2)cc1
AC50 [1]: 22.4 µM [falling, single point]

Cc1nc2ccc(C(=O)Nc3ccccc3Cl)cc2s1
AC50 [1]: 14.1 µM [falling, partial curve, poor fit]

COc1ccc(NS(=O)(=O)c2cc(NC(=O)c3ccc(=O)[nH]c3)ccc2N2CCCC2)cc1
AC50 [1]: 12.6 µM [rising, partial curve, poor fit]

O=C(Nc1ccc(Cl)c(S(=O)(=O)N2CCOCC2)c1)c1ccc2c(c1)OCO2
AC50 [1]: 29.1 µM [falling, single point]

COc1ccc(C)cc1NC(=O)CN(C)S(=O)(=O)c1cc(C)ccc1OC
AC50 [1]: 6.51 µM [rising, partial curve]

CCOC(=O)c1sc(NC(=O)CSc2nnc(Cc3ccccc3)o2)c(C#N)c1C
AC50 [1]: 6.51 µM [rising, partial curve, poor fit]

COc1ccc(NC(=O)C(=O)c2cn(CC(=O)N3CCCC3)c3ccccc23)cc1OC
AC50 [1]: 3.16 µM [falling, full curve, poor fit]

O=C(OCC(=O)N1CCN(c2ccccc2)CC1)c1ccccc1[N+](=O)[O-]
AC50 [1]: 2.59 µM [rising, full curve, poor fit]

CN(c1ccccc1)c1nc(N)c(C#N)c(CC#N)c1C#N
AC50 [1]: 29.1 µM [falling, single point]

N#CCn1c2ccccc2c2nc3ccccc3nc21
AC50 [1]: 0.562 µM [falling, full curve, poor fit] | AC50 [2]: 0.794 µM [rising, full curve]

Cn1c(Cn2nnc(-c3ccccc3)n2)nnc1SCc1ccccc1Cl
AC50 [1]: 23.1 µM [falling, partial curve] | AC50 [2]: 23.1 µM [rising, partial curve, poor fit]

Nc1ncnc(NC2CCS(=O)(=O)C2)c1[N+](=O)[O-] (stereo not given)
AC50 [1]: 1.26 µM [falling, partial curve, poor fit]

CCOC(=O)/C(C#N)=C/c1ccc(OCC(=O)Nc2ccccc2)c(OC)c1
AC50 [1]: 13 µM [falling, partial curve]

CC(C(=O)NC(=O)NC1CCCCC1)N1CCN(c2ccccn2)CC1 (stereo not given)
AC50 [1]: 5.01 µM [falling, partial curve, poor fit]

CCOc1ccccc1NC(=O)C1CCN(S(=O)(=O)c2c(C)nn(C)c2C)CC1
AC50 [1]: 0.82 µM [rising, full curve, poor fit]

COc1cc2nc(CN3CCN(S(=O)(=O)c4cc(C)ccc4C)CC3)[nH]c(=O)c2cc1OC
AC50 [1]: 7.31 µM [rising, partial curve, poor fit]

Cc1nn(CCC(=O)NNC(=S)Nc2cccc(Cl)c2)c(C)c1[N+](=O)[O-]
AC50 [1]: 9.2 µM [rising, single point]

COc1ccc(-c2nnc(SCC(=O)NNC(=O)Cc3ccccc3)n2C)cc1OC
AC50 [1]: 10.3 µM [rising, partial curve]

Cc1nc2c(ccc3nc(NC(=O)c4ccc5c(c4)OCCO5)sc32)s1
AC50 [1]: 6.31 µM [falling, partial curve, poor fit]

CCOC(=O)c1ccc(NC(=O)COc2ccccc2CNC2CCCC2)cc1
AC50 [1]: 15.8 µM [falling, single point]

CC(NC(=O)C12CC3CC(CC(O)(C3)C1)C2)c1ccccc1 (stereo not given)
AC50 [1]: 17.8 µM [rising, partial curve, poor fit]

COc1ccc(CCNC(=O)c2cc(-c3ccc(C)c(C)c3)nc3ccccc23)cc1OC
AC50 [1]: 0.562 µM [rising, full curve, poor fit]

COc1ccc(CNS(=O)(=O)CCNC(=O)c2ccc(OC)cc2)cc1
AC50 [1]: 16.4 µM [falling, single point]

CCOC(=O)CC1=CC(=O)Nc2ccccc2N1
AC50 [1]: 35.5 µM [rising, partial curve, poor fit]

O=S(=O)(Nc1ccc(N2CCCCC2)cc1)c1cccc2cccnc12
AC50 [1]: 29.1 µM [rising, single point]

COc1ccccc1C(=O)N/C(=C/c1ccco1)C(=O)Nc1ccc(C(=O)O)cc1
AC50 [1]: 11.2 µM [falling, partial curve, poor fit]

N#Cc1c(N)n[nH]c1CCCN
AC50 [1]: 29.1 µM [rising, single point]

Cc1oc2ccccc2c1CC(=O)NCCCN(C)C
AC50 [1]: 3.55 µM [rising, single point]

COc1ccc([C@H]2CC(=O)C=C(c3cc(Cl)ccc3C)C2)cc1
AC50 [1]: 0.731 µM [rising, full curve, poor fit]

CN(C(=O)c1cccc(NC(=O)Cc2cccc([N+](=O)[O-])c2)c1)C1CCCC1
AC50 [1]: 18.4 µM [falling, single point]

Cc1c(NC(=O)c2cnn3cccnc23)c(=O)n(-c2ccccc2)n1C
AC50 [1]: 0.411 µM [rising, full curve, poor fit]

COc1ccc(OC)c(NC(=O)C2CCN(Cc3cnn(-c4ccccc4)c3-n3cccc3)CC2)c1
AC50 [1]: 5.17 µM [rising, full curve, poor fit]

Cc1ccccc1-n1cnnc1SCC(=O)N1CCN(c2ccccc2)CC1
AC50 [1]: 18.4 µM [rising, single point]

COc1ccccc1N(CC(=O)NCc1ccccc1)C(=O)CCC(=O)Nc1cc(C)ccn1
AC50 [1]: 6.51 µM [falling, partial curve]

Cc1nc(-c2ccccc2)sc1C1(C)CC(c2ccc(C#N)cc2)=NO1 (stereo not given)
AC50 [1]: 20 µM [rising, partial curve, poor fit]

COc1ccc(NC(=O)C2CCCN(c3nc(C)cc(C)n3)C2)cc1 (stereo not given)
AC50 [1]: 12.6 µM [rising, partial curve, poor fit]

COCCSc1ccccc1C(=O)Nc1nnc(COC)s1
AC50 [1]: 18.4 µM [rising, single point]

N#Cc1ccc(C2N=C(c3ccccc3)NO2)cc1 (stereo not given)
AC50 [1]: 14.1 µM [falling, single point]

COc1ccc(Nc2nc(NC(C)(C)C)nc(N3CCCC3)n2)c(OC)c1
AC50 [1]: 23.1 µM [rising, partial curve]

COc1ccc(Cl)cc1C(=O)Nc1ccccc1N1CCN(C)CC1
AC50 [1]: 23.1 µM [falling, single point]

Cc1ccc(-n2nnnc2CNC(=O)c2ccc([N+](=O)[O-])o2)cc1C
AC50 [1]: 20.6 µM [falling, partial curve, poor fit]

C#CCSc1nnc(-c2ccccc2)c(=O)[nH]1
AC50 [1]: 8.2 µM [falling, partial curve]

CCOc1ccccc1NC(=O)CSc1nnc(-c2ccccn2)n1Cc1ccco1
AC50 [1]: 35.5 µM [falling, single point]

CC(=O)N1CCN(CC(O)COc2ccc(S(=O)(=O)N3CCOCC3)cc2)CC1 (stereo not given)
AC50 [1]: 18.4 µM [rising, partial curve, poor fit]

Nc1nnc(CSCc2ccc(F)cc2)s1
AC50 [1]: 5.17 µM [rising, full curve, poor fit]
